Hit rate of the full screen: of about 3,000 compounds, about 45 (2%) showed an effect of 50% or more. The list shows a part of the results.
test system: MOLM1 and UCSD/AML1 (averaged); assay: cell viability relative to DMSO control (POC); higher = less growth inhibition; conditions: 1 µM; 72 h
Description: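 Primary viability screen in the 3q26 EVI1-high AML cell lines MOLM1 and UCSD/AML1, compounds at 1 uM for 72 h. ATP CellTiter-Glo read-out given as percent viable over DMSO control (POC), averaged over duplicates. This mapping covers the TimTec NDL-3000 natural derivative library, whose compounds are identified by TimTec catalogue codes (ST...).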

Row | SMILES | cell viability
1 | COc1ccc(/C=C2/c3cc(C)ccc3-c3ncccc32)cc1 | 95.8%
2 | COCCOC(=O)c1c(C)n(CCOc2ccccc2Cl)c2c1cc(O)c1ccccc12 | 97.1%
3 | CCN(CC)C(=O)c1cc(=O)n(CC(=O)Nc2ccccc2F)c2ccccc12 | 91%
4 | O=C(/C=C/c1ccc([N+](=O)[O-])cc1)c1cccc2ccccc12 | 32.8%
5 | O=C(O)C1Nc2c(O)cc(Cl)c([N+](=O)[O-])c2C2C=CCC12 (configuration not stated) | 99.4%
6 | CC(C)(C)OC(=O)N[C@@H](Cc1cn(-c2ccc([N+](=O)[O-])cc2[N+](=O)[O-])cn1)C(=O)O | 108%
7 | CCCCCCC(O)C(N)C(=O)O (configuration not stated) | 107%
8 | COCCOC(=O)C1=C(C)NC2=C(C(=O)CCC2)C1c1cc(Br)c(O)c(OC)c1 (configuration not stated) | 109%
9 | COc1ccc(C(=O)NCCc2c(C)[nH]c3ccc(F)cc23)cc1OC | 103%
10 | COc1cc(C=O)cc(O)c1OC | 104%
11 | COc1cc(C2Nc3ccccc3C(=O)N2c2ccc(C)cc2)cc(OC)c1OC (configuration not stated) | 106%
12 | CC1(C)C2CCC1(CS(=O)(=O)Nc1ccncc1)C(=O)C2 (configuration not stated) | 106%
13 | Cn1c(SCC(=O)Nc2ccccc2Cl)nc2c(=O)[nH]cnc21 | 107%
14 | C=C(C)C1CCC2(C(=O)OC)CCC3(C)C(CCC4C5(C)C/C(=C\c6ccc(OCC)cc6)C(=O)C(C)(C)C5CCC43C)C12 (configuration not stated) | 98.5%
15 | COc1cc2c(cc1OC)C(c1cc(OC)c(O)c(OC)c1)CC(=O)N2 (configuration not stated) | 99.5%
16 | COc1ccc(C2CC(=O)C3=C(C2)Nc2ccccc2NC3c2cc(Br)c(O)c(OC)c2)cc1OC (configuration not stated) | 105%
17 | CC(C)COc1ccc2[nH]c3c(c2c1)CCCC3=O | 90.6%
18 | COc1cc(C(=O)NCCc2c(C)[nH]c3ccccc23)cc(OC)c1OC | 81.5%
19 | C#CC(C)(CC)NC(=O)c1ccc(OC)c(OC)c1 (configuration not stated) | 104%
20 | N[C@@H](C(=O)O)[C@@H](O)[C@H](O)[C@H](O)CO | 87.1%
21 | O=C(NC(Cc1c[nH]c2ccccc12)C(=O)O)c1ccco1 (configuration not stated) | 91.7%
22 | CCOC(=O)C1=C(C)NC(=O)NC1c1ccc(O)cc1 (configuration not stated) | 102%
23 | N#C/C(=C\c1ccc(N2CCOCC2)o1)C(=O)NCCc1c[nH]c2ccccc12 | 127%
24 | CC(=O)c1nc2ccccc2n1CC(=O)NCCOc1ccccc1 | 98.2%
25 | Cc1ccc2[nH]c(C)c(CCNC(=O)c3cc4cc(Br)ccc4oc3=O)c2c1 | 102%
26 | CCc1c(C)sc(NC(=O)c2ccc(OC)c(OC)c2)c1C(N)=O | 87.1%

Row | SMILES | cell viability
27 | CC(=O)OC1CCC2(C)C3CCC4(C)C(/C(C)=N\O)=CCC4C3CC[C@H]2C1 (some centres not stated) | 92.9%
28 | CCn1ncc(C(=O)NC2C(=O)N3C(C(=O)O)=C(C)CSC23)c1C (configuration not stated) | 101%
29 | COc1ccc(S(=O)(=O)N2Cc3ccccc3CC2C(=O)Nc2ccc(C(C)=O)cc2)cc1OC (configuration not stated) | 108%
30 | O=C(O)CCC(=O)NC(Cc1c[nH]c2ccccc12)C(=O)O (configuration not stated) | 97.4%
31 | CCOc1ccc(C(=O)Nc2ccc(Br)cc2)cc1OCC | 86.9%
32 | CCOC(=O)CNC(=O)c1cccc(Cl)c1 | 109%
33 | Cc1cc2c(c(O)c1-c1c(C)cc3c(c1O)/C(=C/Nc1c(O)cc(S(=O)(=O)O)c4ccccc14)C(=O)C(O)=C3C(C)C)/C(=C/Nc1c(O)cc(S(=O)(=O)O)c3ccccc13)C(=O)C(O)=C2C(C)C | 90.5%
34 | CSc1nc(N)nc2nc[nH]c12 | 98.9%
35 | COc1cc(C2NC(=O)NC(C)=C2C(=O)OCCOC(C)C)cc(Br)c1O (configuration not stated) | 99.6%
36 | CCOc1cc(C2NC(=O)NC(C)=C2C(=O)NCc2ccccc2)ccc1O (configuration not stated) | 104%
37 | COc1cc(C(C)=O)ccc1OCc1ccccc1F | 96.8%
38 | Cc1ccc(NC(=O)CN2C(=O)S/C(=C/c3cc4c(cc3Cl)OCO4)C2=O)cc1 | 92%
39 | CCOC1OC2C(CO)OC(n3cnc4c(N)ncnc43)C2O1 (configuration not stated) | 101%
40 | CC/C(O)=C1\C(=O)CC(c2ccccc2)CC1=NCCc1c(C)[nH]c2ccc(OCc3ccccc3)cc12 (configuration not stated) | 94.7%
41 | CCCCCCCC(CCCC(=O)O)C(=O)O (configuration not stated) | 101%
42 | COc1cc(OC)cc(C(=O)Nc2ccccc2C(=O)Nc2ccccc2Cl)c1 | 95.1%
43 | CCOc1cc(/C=C/C(=O)O)cc(OCC)c1OCC | 101%
44 | CC(=O)N/C(=C/c1ccc2c(c1)OCO2)C(=O)NCc1ccccc1 | 105%
45 | COc1ccc(C(=O)c2nccc3cc(OC)c(OC)cc23)cc1OC | 101%
46 | CCOC(=O)C(Cc1c[nH]c2ccccc12)NS(=O)(=O)c1ccc2c(c1)OCCO2 (configuration not stated) | 103%
47 | CCC(O)/N=C/c1c(O)c(O)c(C(C)C)c2cc(C)c(-c3c(C)cc4c(C(C)C)c(O)c(O)c(/C=N/C(O)CC)c4c3O)c(O)c12 (configuration not stated) | 88.9%
48 | CCOC(=O)C1CC(c2ccccc2)N2CCCC12 (configuration not stated) | 94.5%
49 | CCc1ccc2[nH]c(=O)cc(C)c2c1 | 103%
50 | CCCCOC(=O)C1=C(C)NC(=O)NC1c1cc(Cl)c(O)c(OC)c1 (configuration not stated) | 94.5%
51 | O=C(CSc1nc2ccccc2c(=O)[nH]1)Nc1ccc(F)c(Cl)c1 | 87.7%
52 | CNC(=S)NCc1cc(OC)c(OC)c(OC)c1 | 97.9%

Copied from above, compounds 47–48
Row | SMILES | cell viability
47 | CCC(O)/N=C/c1c(O)c(O)c(C(C)C)c2cc(C)c(-c3c(C)cc4c(C(C)C)c(O)c(O)c(/C=N/C(O)CC)c4c3O)c(O)c12 (configuration not stated) | 88.9%
48 | CCOC(=O)C1CC(c2ccccc2)N2CCCC12 (configuration not stated) | 94.5%
